Consider three molecules from publication PMC5675994.

Chains of the proteins cited; added tags and fusions are not shown. Lines headed by an entry give the natural chain unless they say otherwise; changes in a name come on top.
UniProt Q07540: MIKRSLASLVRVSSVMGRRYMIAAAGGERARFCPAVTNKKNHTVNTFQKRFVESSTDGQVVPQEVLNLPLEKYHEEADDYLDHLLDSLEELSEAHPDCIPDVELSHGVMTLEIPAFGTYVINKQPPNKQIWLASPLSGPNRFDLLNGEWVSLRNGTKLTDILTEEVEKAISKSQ

In assay [1] the target is T1, Nfs1-His6 (S. cerevisiae) (UniProt P25374).
T1 sequence: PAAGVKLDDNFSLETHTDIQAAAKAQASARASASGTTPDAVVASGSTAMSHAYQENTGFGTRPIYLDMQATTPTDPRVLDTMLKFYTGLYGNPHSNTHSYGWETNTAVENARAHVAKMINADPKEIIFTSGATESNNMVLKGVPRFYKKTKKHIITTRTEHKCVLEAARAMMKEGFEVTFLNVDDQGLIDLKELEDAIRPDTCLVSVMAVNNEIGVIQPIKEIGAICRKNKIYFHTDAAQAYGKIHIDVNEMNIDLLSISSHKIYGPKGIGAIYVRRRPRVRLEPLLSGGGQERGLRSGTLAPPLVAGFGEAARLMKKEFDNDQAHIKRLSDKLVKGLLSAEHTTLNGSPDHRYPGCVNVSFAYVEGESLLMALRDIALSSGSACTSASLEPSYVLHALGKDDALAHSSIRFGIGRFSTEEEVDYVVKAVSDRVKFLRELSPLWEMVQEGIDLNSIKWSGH
In words: affinity purification with mass spectrometry; Nfs1-His6 held on Ni-NTA superflow agarose from sonicated, cleared lysate of isolated mitochondria of the Gal-Nfs1-His6 yeast strain; 50 mM TrisCl pH 7.5, 80 mM KCl, 10% glycerol, wash 40 mM imidazole, elution 400 mM imidazole; eluate analysed by LC-MS/MS.

The target of assay [2] is Yfh1-His6 (S. cerevisiae) (UniProt Q07540). In words: affinity purification with mass spectrometry; Yfh1-His6 held on Ni-NTA superflow agarose from French-press lysate (108,000xg supernatant) of isolated mitochondria of the Yfh1-His6 yeast strain; 50 mM TrisCl pH 7.5, 80 mM KCl, 10% glycerol, wash 40 mM imidazole with 0.1% Triton X-100, elution 400 mM imidazole; eluate analysed by LC-MS/MS.

These are yes or no findings as the source states them, for the method shown. Binding seen in cells or lysates may run through a third protein. Here binding means that the protein was enriched with, or labelled near, the bait; the list need not be complete. For part of these data: Sequences can lack the tags named with a protein.

B1: Acetolactate synthase small subunit, mitochondrial (protein, UniProt P25605 25-309)
chain: SSSSTSALAYKQMHRHATRPPLPTLDTPSWNANSAVSSIIYETPAPSRQPRKQHVLNCLVQNEPGVLSRVSGTLAARGFNIDSLVVCNTEVKDLSRMTIVLQGQDGVVEQARRQIEDLVPVYAVLDYTNSEIIKRELVMARISLLGTEYFEDLLLHHHTSTNAGAADSQELVAEIREKQFHPANLPASEVLRLKHEHLNDITNLTNNFGGRVVDISETSCIVELSAKPTRISAFLKLVEPFGVLECARSGMMALPRTPLKTSTEEAADEDEKISEIVDISQLPPG
For the molecule B1, the binding result in assay [1] and in assay [2] was “binds” in each case.

B2: Clustered mitochondria protein 1 (protein, UniProt Q03690 1-1277)
chain: MSEKKEEVKNATVKVTVKLPKEDNHSHNTKHLKKTQSSKNNDISFEIGKESKIQTVLDVLAMIPSSKYLTNVGLKTIEGDSQLSDEMSIKEIVGEKSELKLQLILKPYSAREALKHVITVRDFIGFAQETSDGLSEFAISTGSSFSSLPLGPIKERSKQEEKDEKSDPEEKKNTFKDVTDEEKLKFNEMVHEVFSSFKNSSINKLLTSESNIITPCVRSLSFAPYNPVPPFYRSKGHLFYLQIVTLEGESFYITAIPSGFYVNKSNSTKFDPSPKENTDENAHSSLIYYSLFDLIASRSKKFISHVQAFEKKLSALDSTSYVRPSNTFLHKPWFVSSLPPNNPDYLRLQTAALDTTPERNFNDEFQAIKDLTTSTLQDRIEMERLFSKVVHEFSVTAASGAMSIFYSDFVAMNPESPTRDQIFLKDNIFYSYVSDVSGNYEGKGGDEAAIAASNQDLKTINILNRLHMHEVRYLLTTVVEFAGRRILAQTPVPGLLATMGNKIVKDANTGEEVTEDFVNDINVKYGLDEGLGKIVYDADFDSVLEKKFVKAFHLKKHKVNGTELAFSSQSKGIVGFDKRRYILDLANTYPLDINFARQNFDNIEETGNRYPHRQTLLRPELVEKWWNNKVEKEGVEFEKAYEENLFSYNPDAYQVEGIEDANVDEMSNYLQKEVIPSVIQDYLSGNLSTPYNGEHLADTLHKNGINMRYLGKIIELSQKELDSQIVHYEQNLKAVEQDNKEYEDWEKSYLQKIENMIKERQAKINKLVQEGKEVPKELTEDLKLNDEEIKKPTDGKPVVVAYDELVPLIKISELEIVSRSLKHVLKDLSKDVPVFLVPSLVAYVFNMLVGINYNADPKPEPVDEFYPVNKCSFAKLTRSELLEAVSKQAFLRFRHQLPSNWIEAYMENPFTLIRSVSYKFGIQLLNKEYFFTREQLESYKQSLDKKIRNKFVEPPTTFSLSDLTIIPRVKFSEYTSSVSEEFWAQGASMINEDKQSALTLLAQSITVLEDVNNILHPAVAEKYLSLSAIYNKLALYPEAIAFCRKACTIYERVSGIDSFEMMRALTNLAILEFSNESPYNATVVYNRLAEILKVYELPKIHHPAPTSIFNHLEQLALGVQDTKLAIEVLGQLSSYVVELEGKDSLAYGYTESRLGNLFAALKDFHRALEHITVTQGIFTKQLGMNHTHSAQSRQWVNGLSSLIMDLKQKKQLAQDQMSTTGSNSAGHKKTNHRQKKDDVKPELANKSVDELLTFIEGDSSNSKSKNKTNNKKKHGKK
For the molecule B2, the binding entry in assay [1] and in assay [2] was “binds” throughout.

B3: Aconitate hydratase, mitochondrial (protein, UniProt P19414 17-778)
chain: ATVSNLTRDSKVNQNLLEDHSFINYKQNVETLDIVRKRLNRPFTYAEKILYGHLDDPHGQDIQRGVSYLKLRPDRVACQDATAQMAILQFMSAGLPQVAKPVTVHCDHLIQAQVGGEKDLKRAIDLNKEVYDFLASATAKYNMGFWKPGSGIIHQIVLENYAFPGALIIGTDSHTPNAGGLGQLAIGVGGADAVDVMAGRPWELKAPKILGVKLTGKMNGWTSPKDIILKLAGITTVKGGTGKIVEYFGDGVDTFSATGMGTICNMGAEIGATTSVFPFNKSMIEYLEATGRGKIADFAKLYHKDLLSADKDAEYDEVVEIDLNTLEPYINGPFTPDLATPVSKMKEVAVANNWPLDVRVGLIGSCTNSSYEDMSRSASIVKDAAAHGLKSKTIFTVTPGSEQIRATIERDGQLETFKEFGGIVLANACGPCIGQWDRRDIKKGDKNTIVSSYNRNFTSRNDGNPQTHAFVASPELVTAFAIAGDLRFNPLTDKLKDKDGNEFMLKPPHGDGLPQRGYDAGENTYQAPPADRSTVEVKVSPTSDRLQLLKPFKPWDGKDAKDMPILIKAVGKTTTDHISMAGPWLKYRGHLENISNNYMIGAINAENKKANCVKNVYTGEYKGVPDTARDYRDQGIKWVVIGDENFGEGSSREHAALEPRFLGGFAIITKSFARIHETNLKKQGLLPLNFKNPADYDKINPDDRIDILGLAELAPGKPVTMRVHPKNGKPWDAVLTHTFNDEQIEWFKYGSALNKIKADEKK
For B3, the binding result in assay [1] and in assay [2] was “binds” throughout.
